## Results of single-concentration screens

Mtb cholesterol medium: 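Whole-cell growth test on Mycobacterium tuberculosis, read after 4 days in a medium based on cholesterol and the lipid DPPC; the read-out is not stated. Compounds at 50 µM. Higher reads as more growth inhibition (inferred: compounds with an IC50 in retests scored well above the rest). About 69,000 compounds were tested under these conditions; 0.54% (about 370) showed 50% or more at least once.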
Mtb glucose medium: 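Growth of Mycobacterium tuberculosis over 3 days (7H9 medium with glucose and tyloxapol); the read-out is not stated. Concentration: 50 µM. Higher reads as more growth inhibition (inferred: compounds with an IC50 in retests scored well above the rest). Size under these conditions: about 69,000 compounds, about 760 of them at 50% or above in at least one test.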

Each number is a percent effect as filed. How 0% and 100% were set is not recorded. Most values in the screen are low, and negative values occur. This is an unselected part of the compounds tested. Two or more numbers in one place are separate tests of the same structure; such repeats can differ widely.

Result for O=C(O)C(F)(F)F.[H][C@@]12C[C@@H](c3nc(C)no3)O[C@]1([H])CN(Cc1ccc3c(c1)OCO3)C2 was Mtb cholesterol medium: -23.64%; Mtb glucose medium: -24.07%.
Result for O=C(NCCn1cccc1)C1CCC(=O)N(C2CCCC2)C1 (stereo not shown) was Mtb cholesterol medium: 13.38%; Mtb glucose medium: -19.67%.
Result for NCCC1CN(c2nc(-c3ccccc3)nc3c2CCNC3)CCO1 (stereo not shown) was Mtb cholesterol medium: 15.36% & 11.5%; Mtb glucose medium: 29.38%.
Result for Cc1cc(NCc2ccc(CO)cc2)n2nc(C)cc2n1 was Mtb cholesterol medium: 3.681%; Mtb glucose medium: 5.489%.
Result for Cc1nncn1CCN1C(=O)CC2(CCCC2)CC1=O was Mtb cholesterol medium: 10.74%; Mtb glucose medium: 17.68%.
Result for O=C(Nc1ccccc1)C1=NOC2(CCCN(C(=O)C3CCCC3)C2)C1 (stereo not shown) was Mtb cholesterol medium: -1.569%; Mtb glucose medium: -9.764%.
Result for CCc1nnc(NC(=O)CCN2CC=C(c3cnn(C)c3)CC2)s1 was Mtb cholesterol medium: -5.675%; Mtb glucose medium: 1.559%.
Result for O=C(Nc1ccccc1F)C1CN(C(=O)c2ccc3c(c2)OCO3)C1 was Mtb cholesterol medium: -9.091%; Mtb glucose medium: -6.885%.
Result for COc1ccccc1/C=C/CNCC1CCc2nncn2C1 (stereo not shown) was Mtb cholesterol medium: -1.134%; Mtb glucose medium: 6.774% & 0.7263%.
Result for CSCC(C)(O)CNC(=O)Nc1ccc(C)cc1Br (stereo not shown) was Mtb cholesterol medium: -11.01%; Mtb glucose medium: -0.3505% & -9.09%.
Result for CC(=O)N1CCCN(c2nccc(-c3cn(C)nc3C)n2)CC1 was Mtb cholesterol medium: 6.175%; Mtb glucose medium: 17.59%.
Result for O=C(O)C(F)(F)F.O=C(O)C(F)(F)F.[H][C@@]12CN(Cc3ccco3)C[C@]1([H])[C@@H](OC)CCN2c1ncc(F)cn1 was Mtb cholesterol medium: 1.209%; Mtb glucose medium: 16.22% & -3.57%.
Result for NC(=O)c1ccc(-c2nc3c(c(=O)[nH]2)CCNC3)cc1 was Mtb cholesterol medium: -7.34%; Mtb glucose medium: -8.32%.
Result for CC(c1ccon1)N(C)C(=O)C1CCN(C(=O)C2CCC2)CC1 (stereo not shown) was Mtb cholesterol medium: -22.15%; Mtb glucose medium: -5.235%.
Result for CC(NCCNS(=O)(=O)c1cccc(Cl)c1)C1CCOCC1 (stereo not shown) was Mtb cholesterol medium: 9.131%; Mtb glucose medium: 12.86% & 4.215%.
Result for Cc1nc2cc(=O)[nH]n2c(C)c1CNC(=O)c1cnn(C(C)(C)C)c1 was Mtb cholesterol medium: -3.726%; Mtb glucose medium: 14.83% & 1.609%.
Result for CCOCCC(=O)Nc1cccc(Cl)c1C(N)=O was Mtb cholesterol medium: -3.908%; Mtb glucose medium: -1.992%.
Result for Cc1ccc(NC(=O)Nc2c[nH]c(=O)[nH]c2=O)c(Cl)c1 was Mtb cholesterol medium: 5.13%; Mtb glucose medium: 27.25%.
Result for CCc1nc(CN(C)C2CCN(CC(=O)N(C)C)C2)no1 (stereo not shown) was Mtb cholesterol medium: -27.46%; Mtb glucose medium: -4.745%.
Result for Cc1ccc(-c2cc(C)nc(C3CCCN3S(C)(=O)=O)n2)cc1 (stereo not shown) was Mtb cholesterol medium: -10.71%; Mtb glucose medium: -9.101%.
Result for COc1ncccc1C(=O)N1CCC(c2nc3c(C)cccc3[nH]2)CC1 was Mtb cholesterol medium: -14.35% & 1.831%; Mtb glucose medium: -15.57%.
Result for Cc1nccn1CCN(C)C(=O)C1CCCN(C2CCOCC2)C1 (stereo not shown) was Mtb cholesterol medium: 1.856%; Mtb glucose medium: -25.3%.
Result for Cn1cc(CCC(=O)NC(c2ccc(F)cc2)C(F)(F)F)cn1 (stereo not shown) was Mtb cholesterol medium: 10.1%; Mtb glucose medium: 8.763%.
Result for CNS(=O)(=O)c1cccc(CNC(=O)CCc2ccsc2)c1 was Mtb cholesterol medium: -13.91%; Mtb glucose medium: -14.9% & -4.737%.
Result for CC(C)N1CCOC[C@H]1c1nc(-c2ccncc2)c[nH]1 was Mtb cholesterol medium: 17.97%; Mtb glucose medium: 11.9% & 13.84%.
Result for CCC1CN(CC(=O)NCCN2CCCC2)c2ccccc2S1 (stereo not shown) was Mtb cholesterol medium: 8.697%; Mtb glucose medium: 34.06%.
Result for Cn1cccc1CN(C(=O)CC(CC(=O)O)c1cccs1)C1CC1 (stereo not shown) was Mtb cholesterol medium: -6.285%; Mtb glucose medium: 29.34%.
Result for COc1ccc2c(c1)C(C(=O)N(C)CCc1cnn(C)c1)CC(=O)N2 (stereo not shown) was Mtb cholesterol medium: 0.1716%; Mtb glucose medium: -2.31%.
Result for N#CCC(=O)NCc1nnc2n1CCN(Cc1cccs1)C2 was Mtb cholesterol medium: -6.036%; Mtb glucose medium: -1.631% & -11.7%.
Result for O=C(CN1CCCCC1)Nc1cc(C(F)(F)F)ccc1-n1cccc1 was Mtb cholesterol medium: -8.837%; Mtb glucose medium: 1.062% & 9.401%.
Result for O=C(NCCOCC(F)(F)F)c1ccc(-c2ccccc2)[nH]c1=O was Mtb cholesterol medium: -29.15%; Mtb glucose medium: 18.3%.
Result for O=C(Cn1cc(I)cn1)N1CCNC1=O was Mtb cholesterol medium: 12.52%; Mtb glucose medium: 20.82%.
Result for CC(C)Oc1ccc(CN)c(C(F)(F)F)c1 was Mtb cholesterol medium: 6.06%; Mtb glucose medium: -3.151%.
Result for Cc1ncsc1-c1nc(-c2cccc(CN3CCOCC3)c2)no1 was Mtb cholesterol medium: -6.09%; Mtb glucose medium: 7.783%.
Result for CCOc1ncnc2c1CCN(C(=O)c1cnccn1)CC2 was Mtb cholesterol medium: -14.78%; Mtb glucose medium: -32.1% & -2.99%.
Result for Cc1sc(Br)cc1S(=O)(=O)NCCN.Cl was Mtb cholesterol medium: 19.16%; Mtb glucose medium: 54.13%.
Result for CCn1c(C)nnc1SCCNC(=O)c1sc(C(C)C)nc1C was Mtb cholesterol medium: 7.847%; Mtb glucose medium: -1.652% & -22.51%.
Result for CC(C)N1CCC2(CC1)C(=O)N(c1cccnc1)c1ccc(F)cc12.Cl was Mtb cholesterol medium: -6.863%; Mtb glucose medium: -2.557% & 2.487%.
Result for CN(Cc1nc(C2CC2)no1)C(=O)CN1CC(c2ccccc2)CC1=O (stereo not shown) was Mtb cholesterol medium: -29.16%; Mtb glucose medium: 10.55%.
Result for O=C(NCC1CCOC1)c1csc(-c2cccc(Cl)c2)n1 (stereo not shown) was Mtb cholesterol medium: -28.45%; Mtb glucose medium: 12.86%.
Result for Cc1cc(C)nc(N2CCCC(C(=O)Nc3n[nH]c(C(C)C)n3)C2)n1 (stereo not shown) was Mtb cholesterol medium: 7.844%; Mtb glucose medium: 4.86% & 0.9872%.
Result for Cc1ccc(O)c(C(=O)N2CCOCC2c2c(C)n[nH]c2C)c1 (stereo not shown) was Mtb cholesterol medium: 2.89%; Mtb glucose medium: -2.743%.
Result for CC(Cc1ccc(Cl)cc1)N(C)C(=O)NCCS(C)(=O)=O (stereo not shown) was Mtb cholesterol medium: -14.44%; Mtb glucose medium: -25.06%.
Result for COCCO[C@H]1CCN(Cc2ccoc2)[C@H]1Cc1cccnc1 was Mtb cholesterol medium: -8.092%; Mtb glucose medium: 0.9368%.
Result for CC(=O)c1ccc(Nc2nc(N)nc3c2nc(C)n3C)cc1 was Mtb cholesterol medium: -15.75%; Mtb glucose medium: -23.21%.
Result for CN1C[C@H](O)C[C@H]1c1nc(-c2ccc3c(c2)OCO3)no1 was Mtb cholesterol medium: -0.6248%; Mtb glucose medium: 4.912% & 0.8868%.
Result for Cc1cnn(CC(C)NCc2nc(-c3ccsc3)oc2C)c1 (stereo not shown) was Mtb cholesterol medium: -16.79%; Mtb glucose medium: -8.091%.

Once more, the final 4:

For COCCO[C@H]1CCN(Cc2ccoc2)[C@H]1Cc1cccnc1 the result was Mtb cholesterol medium: -8.092%; Mtb glucose medium: 0.9368%.
For CC(=O)c1ccc(Nc2nc(N)nc3c2nc(C)n3C)cc1 the result was Mtb cholesterol medium: -15.75%; Mtb glucose medium: -23.21%.
For CN1C[C@H](O)C[C@H]1c1nc(-c2ccc3c(c2)OCO3)no1 the result was Mtb cholesterol medium: -0.6248%; Mtb glucose medium: 4.912% & 0.8868%.
For Cc1cnn(CC(C)NCc2nc(-c3ccsc3)oc2C)c1 (stereo not shown) the result was Mtb cholesterol medium: -16.79%; Mtb glucose medium: -8.091%.

From ChEMBL document CHEMBL3988442, “University of Dundee, Small-Polar-MMV Screening Library” (2021).